Reference: US7514207B2, “Methods of screening for compounds that decrease phosphorylation of merlin and may be useful in cancer treatment” (Massachusetts Institute of Technology, priority 2001, dated 2009)
These are yes or no findings as the source states them, for the method shown. In cells and extracts the contact can be indirect. Some binding calls cover weakened binding; strength is not graded here.

Protein sequences, listed by entry. Tags and fused reporters are not part of them. Lines headed by an entry give the natural chain unless they say otherwise; changes in a name come on top. Chains listed by the source or under a name are the forms on record and can include a tag or linker.
UniProt Q13153: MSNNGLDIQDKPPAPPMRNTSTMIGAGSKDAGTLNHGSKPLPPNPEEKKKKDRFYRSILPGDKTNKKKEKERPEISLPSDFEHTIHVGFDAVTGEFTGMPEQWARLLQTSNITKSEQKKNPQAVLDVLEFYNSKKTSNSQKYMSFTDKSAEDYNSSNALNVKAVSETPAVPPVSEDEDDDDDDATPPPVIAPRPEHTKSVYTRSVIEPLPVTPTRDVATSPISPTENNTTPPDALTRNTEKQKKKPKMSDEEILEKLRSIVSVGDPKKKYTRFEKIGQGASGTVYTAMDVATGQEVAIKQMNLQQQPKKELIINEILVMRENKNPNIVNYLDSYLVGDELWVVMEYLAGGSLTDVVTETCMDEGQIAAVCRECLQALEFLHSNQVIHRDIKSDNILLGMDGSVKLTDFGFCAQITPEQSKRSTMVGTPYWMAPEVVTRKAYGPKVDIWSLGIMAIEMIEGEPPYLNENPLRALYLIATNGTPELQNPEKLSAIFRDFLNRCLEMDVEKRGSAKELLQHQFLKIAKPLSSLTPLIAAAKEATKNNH
UniProt Q13177: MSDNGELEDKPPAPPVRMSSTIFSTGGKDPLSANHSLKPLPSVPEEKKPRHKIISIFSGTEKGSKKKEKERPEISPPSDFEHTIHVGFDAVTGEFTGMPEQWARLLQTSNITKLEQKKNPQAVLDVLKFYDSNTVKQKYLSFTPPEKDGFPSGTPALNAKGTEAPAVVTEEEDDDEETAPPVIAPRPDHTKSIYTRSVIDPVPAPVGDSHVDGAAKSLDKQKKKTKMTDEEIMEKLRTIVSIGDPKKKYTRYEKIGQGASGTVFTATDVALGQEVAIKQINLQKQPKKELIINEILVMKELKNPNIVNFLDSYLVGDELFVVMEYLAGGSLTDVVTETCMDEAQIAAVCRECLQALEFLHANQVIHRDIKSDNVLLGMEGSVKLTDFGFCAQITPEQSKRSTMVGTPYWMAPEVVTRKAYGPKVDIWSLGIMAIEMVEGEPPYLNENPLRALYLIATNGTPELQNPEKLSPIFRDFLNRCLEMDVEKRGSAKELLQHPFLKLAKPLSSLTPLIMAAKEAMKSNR
PAK3 (transfected) (O75914, form named): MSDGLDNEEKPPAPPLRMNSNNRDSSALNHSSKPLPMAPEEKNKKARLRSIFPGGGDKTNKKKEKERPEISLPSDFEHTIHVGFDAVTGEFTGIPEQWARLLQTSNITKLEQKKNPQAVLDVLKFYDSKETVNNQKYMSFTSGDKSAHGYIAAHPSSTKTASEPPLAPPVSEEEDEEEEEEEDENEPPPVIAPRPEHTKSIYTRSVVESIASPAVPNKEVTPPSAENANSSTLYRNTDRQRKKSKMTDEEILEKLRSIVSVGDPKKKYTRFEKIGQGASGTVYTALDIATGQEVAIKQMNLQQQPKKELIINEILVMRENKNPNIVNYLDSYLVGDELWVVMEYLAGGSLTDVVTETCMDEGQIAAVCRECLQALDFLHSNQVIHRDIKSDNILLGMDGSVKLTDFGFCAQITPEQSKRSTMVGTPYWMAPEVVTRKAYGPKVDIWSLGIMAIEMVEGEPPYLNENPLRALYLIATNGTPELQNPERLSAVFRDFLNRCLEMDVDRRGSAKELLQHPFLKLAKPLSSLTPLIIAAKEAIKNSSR
UniProt P35240: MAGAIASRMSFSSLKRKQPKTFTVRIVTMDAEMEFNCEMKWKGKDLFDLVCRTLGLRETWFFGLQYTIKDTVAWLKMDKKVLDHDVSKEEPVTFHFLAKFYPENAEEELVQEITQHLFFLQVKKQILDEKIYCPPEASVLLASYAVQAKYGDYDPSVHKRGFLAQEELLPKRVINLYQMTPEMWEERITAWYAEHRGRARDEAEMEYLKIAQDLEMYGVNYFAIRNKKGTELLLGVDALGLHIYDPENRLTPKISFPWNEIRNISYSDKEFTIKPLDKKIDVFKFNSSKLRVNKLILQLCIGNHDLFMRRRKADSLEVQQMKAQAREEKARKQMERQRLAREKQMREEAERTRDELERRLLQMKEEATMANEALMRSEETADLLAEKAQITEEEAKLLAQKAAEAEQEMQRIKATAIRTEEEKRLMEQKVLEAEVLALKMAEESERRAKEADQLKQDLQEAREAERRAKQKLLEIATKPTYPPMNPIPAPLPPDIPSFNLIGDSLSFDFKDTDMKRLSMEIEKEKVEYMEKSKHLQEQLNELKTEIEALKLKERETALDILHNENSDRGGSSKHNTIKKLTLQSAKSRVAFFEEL

Columns and labels:
Experiment in all cases: co-immunoprecipitation from transfected NIH3T3 cells
PAK1 (transfected) = PAK1 (transfected) (UniProt Q13153)
[1] = biological target: PAK2 wild-type (transfected) (UniProt Q13177)
PAK3 (transfected) = PAK3 (transfected) (UniProt O75914)

Measured: binding

wild-type merlin (full-length, ectopically expressed) (from UniProt P35240 1-595)
binds: all assays above
